# Assay results

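A panel of P. falciparum strains inside erythrocytes is exposed to compounds for three days, then a DNA-binding dye reports the amount of parasite DNA.
Each compound was titrated across a series from about 0.000037 to 29 µM.
The number is the fitted AC50, the concentration giving a half-maximal change in signal; a lower value means higher potency, whether the curve shows a decrease or an increase.
Calls follow the curve class and fit quality: every row here is inconclusive, covering signal-raising curves and weak, poorly fitted, partial or highest-dose-only inhibition curves.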

Values are in µM.
All entries here are filed as inconclusive.
Only part of the assay is shown, chiefly results filed as inconclusive.
A potency from a partial, single-point or poor curve is only a rough figure.
Some entries filed as inconclusive have a full curve.

| compound | condition | Potency (µM) | curve |
|---|---|---|---|
| `CCc1cccc(N(C)C(N)=Nc2cccc3ccccc23)c1` | CP215 | 5.358 | inhibitor, partial curve |
| `CCc1cccc(N(C)C(N)=Nc2cccc3ccccc23)c1` | P93_24 | 2.818 | inhibitor, partial curve |
| `CCc1cccc(N(C)C(N)=Nc2cccc3ccccc23)c1` | AS120 | 5.012 | inhibitor, partial curve |
| `CCc1cccc(N(C)C(N)=Nc2cccc3ccccc23)c1` | CP252 | 7.08 | inhibitor, partial curve |
| `CCc1cccc(N(C)C(N)=Nc2cccc3ccccc23)c1` | CP256 | 5.012 | inhibitor, partial curve |
| `CCc1cccc(N(C)C(N)=Nc2cccc3ccccc23)c1` | P94_40 | 3.548 | inhibitor, full curve |
| `CCc1cccc(N(C)C(N)=Nc2cccc3ccccc23)c1` | CP250 | 10 | inhibitor, single point |
| `CCc1cccc(N(C)C(N)=Nc2cccc3ccccc23)c1` | ATS189 | 5.012 | inhibitor, partial curve |
| `CCc1cccc(N(C)C(N)=Nc2cccc3ccccc23)c1` | CP268 | 5.358 | inhibitor, partial curve |
| `CCc1cccc(N(C)C(N)=Nc2cccc3ccccc23)c1` | CP247 | 3.162 | inhibitor, full curve |
| `CCc1cccc(N(C)C(N)=Nc2cccc3ccccc23)c1` | ATS95 | 4.467 | inhibitor, partial curve |
| `CCc1cccc(N(C)C(N)=Nc2cccc3ccccc23)c1` | CP269 | 5.358 | inhibitor, partial curve |
| `CCc1cccc(N(C)C(N)=Nc2cccc3ccccc23)c1` | CP237 | 3.981 | inhibitor, partial curve |
| `CCc1cccc(N(C)C(N)=Nc2cccc3ccccc23)c1` | CP329 | 6.746 | inhibitor, partial curve |
| `CCc1cccc(N(C)C(N)=Nc2cccc3ccccc23)c1` | CP265 | 7.08 | inhibitor, partial curve |
| `CCc1cccc(N(C)C(N)=Nc2cccc3ccccc23)c1` | TAB109 | 3.162 | inhibitor, full curve |
| `CCc1cccc(N(C)C(N)=Nc2cccc3ccccc23)c1` | CP325 | 6.746 | inhibitor, partial curve |
| `CCc1cccc(N(C)C(N)=Nc2cccc3ccccc23)c1` | TAB165 | 10 | inhibitor, partial curve |
| `CCc1cccc(N(C)C(N)=Nc2cccc3ccccc23)c1` | CP185 | 3.548 | inhibitor, partial curve |
| `CCc1cccc(N(C)C(N)=Nc2cccc3ccccc23)c1` | CP291 | 6.746 | inhibitor, partial curve |
| `CCc1cccc(N(C)C(N)=Nc2cccc3ccccc23)c1` | CP266 | 5.358 | inhibitor, partial curve |
| `CCc1cccc(N(C)C(N)=Nc2cccc3ccccc23)c1` | CP201 | 6.746 | inhibitor, partial curve |
| `CCc1cccc(N(C)C(N)=Nc2cccc3ccccc23)c1` | CP335 | 4.776 | inhibitor, partial curve |
| `CCc1cccc(N(C)C(N)=Nc2cccc3ccccc23)c1` | CP217 | 5.012 | inhibitor, partial curve |
| `CCc1cccc(N(C)C(N)=Nc2cccc3ccccc23)c1` | TAB113 | 5.012 | inhibitor, partial curve |
| `CCc1cccc(N(C)C(N)=Nc2cccc3ccccc23)c1` | PC49 | 11.22 | inhibitor, single point |
| `CCc1cccc(N(C)C(N)=Nc2cccc3ccccc23)c1` | CP260 | 11.22 | inhibitor, partial curve |
| `CCc1cccc(N(C)C(N)=Nc2cccc3ccccc23)c1` | CP297 | 5.358 | inhibitor, partial curve, poor fit |
| `CCc1cccc(N(C)C(N)=Nc2cccc3ccccc23)c1` | CP191 | 7.08 | inhibitor, partial curve |
| `CCc1cccc(N(C)C(N)=Nc2cccc3ccccc23)c1` | CP305 | 3.793 | inhibitor, partial curve |
| `CCc1cccc(N(C)C(N)=Nc2cccc3ccccc23)c1` | CP211 | 5.358 | inhibitor, partial curve |
| `CCc1cccc(N(C)C(N)=Nc2cccc3ccccc23)c1` | CP194 | 6.012 | inhibitor, partial curve |
| `CCc1cccc(N(C)C(N)=Nc2cccc3ccccc23)c1` | SC27B | 2.818 | inhibitor, partial curve |
| `CCc1cccc(N(C)C(N)=Nc2cccc3ccccc23)c1` | CP238 | 11.22 | inhibitor, single point |
| `CCc1cccc(N(C)C(N)=Nc2cccc3ccccc23)c1` | JCK | 12.59 | inhibitor, single point |
| `C[C@@H]1CN(CCCn2c3ccccc3c3ccccc32)C[C@H](C)N1` | CP329 | 6.746 | inhibitor, partial curve |
| `C[C@@H]1CN(CCCn2c3ccccc3c3ccccc32)C[C@H](C)N1` | SC27B | 11.22 | inhibitor, partial curve |
| `C[C@@H]1CN(CCCn2c3ccccc3c3ccccc32)C[C@H](C)N1` | CP185 | 6.31 | inhibitor, partial curve |
| `C[C@@H]1CN(CCCn2c3ccccc3c3ccccc32)C[C@H](C)N1` | 3D7 | 8.912 | inhibitor, single point |
| `C[C@@H]1CN(CCCn2c3ccccc3c3ccccc32)C[C@H](C)N1` | CP250 | 10 | inhibitor, single point |
| `C[C@@H]1CN(CCCn2c3ccccc3c3ccccc32)C[C@H](C)N1` | PC49 | 1 | inhibitor, full curve, poor fit |
| `CN1CCN(c2c(F)cc3c(=O)c(C(=O)O)cn4c3c2SCC4)CC1` | ATS95 | 12.59 | inhibitor, single point |
| `CN1CCN(c2c(F)cc3c(=O)c(C(=O)O)cn4c3c2SCC4)CC1` | PAD | 1.413 | inhibitor, full curve |
| `CN1CCN(c2c(F)cc3c(=O)c(C(=O)O)cn4c3c2SCC4)CC1` | TAB109 | 7.943 | inhibitor, partial curve |
| `CN1CCN(c2c(F)cc3c(=O)c(C(=O)O)cn4c3c2SCC4)CC1` | ICS | 10 | inhibitor, single point |
| `CN1CCN(c2c(F)cc3c(=O)c(C(=O)O)cn4c3c2SCC4)CC1` | P94_40 | 11.22 | inhibitor, partial curve, poor fit |
| `CN1CCN(c2c(F)cc3c(=O)c(C(=O)O)cn4c3c2SCC4)CC1` | CP269 | 8.492 | inhibitor, single point |
| `CN1CCN(c2c(F)cc3c(=O)c(C(=O)O)cn4c3c2SCC4)CC1` | CP260 | 7.943 | inhibitor, partial curve |
| `CN1CCN(c2c(F)cc3c(=O)c(C(=O)O)cn4c3c2SCC4)CC1` | CP185 | 3.981 | inhibitor, partial curve |
| `CN1CCN(c2c(F)cc3c(=O)c(C(=O)O)cn4c3c2SCC4)CC1` | AS120 | 2.818 | inhibitor, full curve |
| `CN1CCN(c2c(F)cc3c(=O)c(C(=O)O)cn4c3c2SCC4)CC1` | 7G8 | 5.623 | inhibitor, partial curve |

Source: PubChem BioAssay AID504749 (NCATS, 2011).